Reference: PubChem BioAssay AID258 (DTP/NCI, 2004)
The list does not hold the whole screen: it gathers tests that were run many times, whatever their T/C, doses with no T/C, and many T/C values between a quarter and a half above the control. Further doses and runs are listed elsewhere. T/C is the treated group as % of the vehicle group. Some entries give survivors of the animals treated and no T/C: the source files T/C as zero there, which appears to mark a toxic dose or a test without result, not a measured value. Some doses without a T/C left all or most animals alive at the check, yet need not have been tolerated: the source hardly ever lists a survival T/C far under the control, and the zero likely stands for such cases as well. Survivors were counted at the toxicity check, usually on the fifth day, unless a day is given; later deaths do not show. Schedule codes are those of the source, read here as Q, the interval in days (D) or hours (H), X, the number of doses. Some entries were tested several times; the values are given in rising order. Some schedules carry Z or #; the key to these is not given. For survival time, the PubChem record calls one and a half times the control and up active, and a quarter to a half above the control has no call in these data; cut-offs in other NCI protocols can differ. Some T/C values are followed by the survivors on the day toxicity was checked, most often the fifth; without a count, all were alive then. Signs of the kind (2×) stand for listed records that agree.

Tested on: CD2F1 mice, L1210 leukemia sc, survival T/C
Assay: NCI In Vivo Anticancer Drug Screen. Data for tumor model L1210 Leukemia (subcutaneous) in CD2F1 (CDF1) mice
Conditions: T/C endpoint: median survival time, higher T/C = longer survival
Outline: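 Antitumor activity is scored in tumor-bearing mice by comparing survival or tumor size of treated animals against vehicle-treated controls, reported as T/C.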

[1] = dose: 108.0 mg/kg/injection, schedule: Q01DX Z (sc), vehicle: methylcellulose (MC)
[2] = dose: 180.0 mg/kg/injection, schedule: Q01DX Z (sc), vehicle: methylcellulose (MC)
[3] = dose: 300.0 mg/kg/injection, schedule: Q01DX Z (sc), vehicle: methylcellulose (MC)
[4] = dose: 500.0 mg/kg/injection, schedule: Q01DX Z (sc), vehicle: methylcellulose (MC)
[5] = dose: 200.0 mg/kg/injection, schedule: Q01DX009 (ip), vehicle: saline

CS(=O)(=O)OCCCCCCCCCOS(C)(=O)=O
survivor count (dose: 23.0 mg/kg/injection, schedule: Q01DX Z (sc), vehicle: methylcellulose (MC)): 0 of 10 | survivor count (dose: 39.0 mg/kg/injection, schedule: Q01DX Z (sc), vehicle: methylcellulose (MC)): 1 of 10 | survivor count (dose: 65.0 mg/kg/injection, schedule: Q01DX Z (sc), vehicle: methylcellulose (MC)): 1 of 10 | T/C (dose: 78.0 mg/kg/injection, schedule: Q01DX Z (sc), vehicle: carboxymethylcellulose (CMC)): 131 % of control | survivor count [1]: 5 of 10 | T/C (dose: 130.0 mg/kg/injection, schedule: Q01DX Z (sc), vehicle: carboxymethylcellulose (CMC)): 137 % of control | survivor count [2]: 4 of 10 | T/C (dose: 216.0 mg/kg/injection, schedule: Q01DX Z (sc), vehicle: carboxymethylcellulose (CMC)): 137 % of control | survivor count [3]: 1 of 10 | T/C (dose: 360.0 mg/kg/injection, schedule: Q01DX Z (sc), vehicle: carboxymethylcellulose (CMC)): 131 % of control | survivor count [4]: 2 of 10 | T/C (dose: 600.0 mg/kg/injection, schedule: Q01DX Z (sc), vehicle: carboxymethylcellulose (CMC)): 131 % of control

COC12C(COC(N)=O)C3=C(C(=O)C(C)=C(N)C3=O)N1CC1C2N1C (stereo not drawn)
T/C (dose: 8.0 mg/kg/injection, schedule: Q01DX009 (ip), vehicle: saline): 128 % of control | survivor count (dose: 30.0 mg/kg/injection, schedule: Q01DX009 (ip), vehicle: saline): 10 of 10 | survivor count (dose: 32.0 mg/kg/injection, schedule: Q01DX009 (ip), vehicle: saline): 10 of 10 | survivor count (dose: 60.0 mg/kg/injection, schedule: Q01DX009 (ip), vehicle: saline): 6 of 10

CN1CCN(c2ccc3nc(-c4ccc5nc(-c6ccc(O)cc6)[nH]c5c4)[nH]c3c2)CC1
T/C (dose: 12.5 mg/kg/injection, schedule: Q01DX009 (ip), vehicle: saline, evaluated on day 30): 111 and 113 % of control (2×) | T/C (dose: 12.5 mg/kg/injection, schedule: Q01DX009 (ip), vehicle: saline, evaluated on day 60): 107 % of control | T/C (dose: 25.0 mg/kg/injection, schedule: Q01DX009 (ip), vehicle: saline, evaluated on day 30): 111, 112, 125 % of control | T/C (dose: 25.0 mg/kg/injection, schedule: Q01DX009 (ip), vehicle: saline, evaluated on day 60): 110 % of control | T/C (dose: 50.0 mg/kg/injection, schedule: Q01DX009 (ip), vehicle: saline, evaluated on day 30): 126, 143, 146 % of control | T/C (dose: 50.0 mg/kg/injection, schedule: Q01DX009 (ip), vehicle: saline, evaluated on day 60): 124 % of control | survivor count (dose: 56.0 mg/kg/injection, schedule: Q03HX008 (ip), vehicle: saline): 0 of 10 | survivor count (dose: 75.0 mg/kg/injection, schedule: Q03HX024 (ip), vehicle: saline): 0 of 10 | T/C (dose: 100.0 mg/kg/injection, schedule: Q01DX009 (ip), vehicle: saline, evaluated on day 30): 146, 146 [5 of 6 alive], 146 % of control [9 of 10 alive] | T/C (dose: 100.0 mg/kg/injection, schedule: Q01DX009 (ip), vehicle: saline, evaluated on day 60): 129 % of control | survivor count (dose: 112.0 mg/kg/injection, schedule: Q03HX008 (ip), vehicle: saline): 0 of 10 | T/C [5]: 146 % of control | survivor count [5]: 1 of 6, 6 of 10, 7 of 10 | survivor count (dose: 225.0 mg/kg/injection, schedule: Q01DX001 (ip), vehicle: suspension in saline): 6 of 10 | survivor count (dose: 225.0 mg/kg/injection, schedule: Q03HX008 (ip), vehicle: saline): 0 of 10 | survivor count (dose: 300.0 mg/kg/injection, schedule: Q04DX003 (ip), vehicle: saline): 3 of 10 | survivor count (dose: 450.0 mg/kg/injection, schedule: Q01DX001 (ip), vehicle: suspension in saline): 0 of 10 | survivor count (dose: 600.0 mg/kg/injection, schedule: Q04DX003 (ip), vehicle: saline): 0 of 10 | survivor count (dose: 900.0 mg/kg/injection, schedule: Q01DX001 (ip), vehicle: suspension in saline): 0 of 10 | survivor count (dose: 1800.0 mg/kg/injection, schedule: Q01DX001 (ip), vehicle: suspension in saline): 0 of 10

Cc1cccnc1
survivor count (dose: 39.0 mg/kg/injection, schedule: Q01DX Z (sc), vehicle: water): 6 of 10 | survivor count (dose: 65.0 mg/kg/injection, schedule: Q01DX Z (sc), vehicle: water): 5 of 10 | survivor count (dose: 300.0 mg/kg/injection, schedule: Q01DX Z (sc), vehicle: water): 5 of 10 | survivor count (dose: 500.0 mg/kg/injection, schedule: Q01DX Z (sc), vehicle: water): 2 of 10

Cc1cc(NCCCCCCCNc2cc(C)nc3cc(N)ccc23)c2ccc(N)cc2n1
T/C (dose: 6.25 mg/kg/injection, schedule: Q01DX009 (ip), vehicle: water): 132 % of control | survivor count (dose: 12.5 mg/kg/injection, schedule: Q01DX009 (ip), vehicle: water): 3 of 6 | survivor count (dose: 25.0 mg/kg/injection, schedule: Q01DX009 (ip), vehicle: water): 2 of 6 and 3 of 6

C[C@@](O)(/C=C/[C@H]1CC=CC(=O)O1)[C@@H](C[C@@H](O)\C=C/C=C\C=C\CO)OP(=O)(O)O
T/C (dose: 12.5 mg/kg/injection, schedule: Q01DX009 (ip), vehicle: other): 130 % of control | survivor count (dose: 25.0 mg/kg/injection, schedule: Q01DX009 (ip), vehicle: other): 0 of 10 | survivor count (dose: 50.0 mg/kg/injection, schedule: Q01DX009 (ip), vehicle: other): 0 of 10

O=C(NO)c1cc(O)c(O)c(O)c1
T/C (dose: 200.0 mg/kg/injection, schedule: Q01DX009 (ip), vehicle: distilled water + Tween-80): 141 % of control | T/C (dose: 400.0 mg/kg/injection, schedule: Q01DX009 (ip), vehicle: distilled water + Tween-80): 140 % of control

CC/C(=C(/CC)c1ccc(O)cc1)c1ccc(O)cc1
survivor count (dose: 12.5 mg/kg/injection, schedule: Q01DX009 (sc), vehicle: saline with Tween-80): 6 of 10 | survivor count (dose: 50.0 mg/kg/injection, schedule: Q01DX009 (sc), vehicle: saline with Tween-80): 6 of 10 | survivor count [1]: 2 of 10 | survivor count [2]: 2 of 10 | survivor count (dose: 200.0 mg/kg/injection, schedule: Q01DX009 (sc), vehicle: saline with Tween-80): 5 of 10 | survivor count [3]: 4 of 10 | survivor count (dose: 400.0 mg/kg/injection, schedule: Q01DX009 (ip), vehicle: saline with Tween-80): 3 of 10 | survivor count (dose: 400.0 mg/kg/injection, schedule: Q01DX009 (sc), vehicle: saline with Tween-80): 6 of 10 | survivor count [4]: 3 of 10 | survivor count (dose: 833.0 mg/kg/injection, schedule: Q01DX Z (sc), vehicle: methylcellulose (MC)): 1 of 10
